# According to the supplement of paper PMC8551327:
# Several values for one entry are separate records, joined by “and”; a condition that tells them apart may be missing. Identical values can stand only once. Counter-ions that a name gives are not always drawn. Some of the results follow. No stated cut-off is given here; in the data, active = 1.25 or more and inactive = the rest. Repeats are few or missing, and single values can be far off.
# System: Kcc2-LUC knock-in mouse primary cortical neurons (Kcc2 promoter reporter)
# Experiment: Kcc2 promoter-driven luciferase activity relative to vehicle control (fold of vehicle (ratio)); higher = stronger Kcc2 promoter activation (Kcc2 expression enhancer)
# Details: 100 nM; 48 h
row,SMILES,Kcc2 promoter-driven luciferase activity
1,CC(=NNC(=S)N1CCC1)c1ccccn1,inactive: 0.82
2,Cc1nc(-c2cccnc2)sc1C(=O)/C=C/c1ccc(Cl)cc1Cl,inactive: 1.17
3,CC(C)C1=CC2=CC[C@@H]3[C@](C)(CCC[C@@]3(C)C(=O)O)[C@H]2CC1 [Abietic Acid],inactive: 0.79
4,O=C1/C(=C/c2ccc([N+](=O)[O-])cc2)Sc2scc(-c3cccc([N+](=O)[O-])c3)[n+]21,inactive: 0.85
5,"CN(C)c1ccc(/C=C/C(=O)[O-])cc1.CN(C)c1ccc(/C=C/C(=O)[O-])cc1.[Cu+2] [p-Dimethylaminocinnamic acid, copper complex]",inactive: 1.04
6,O=C(CC(=O)C(F)(F)F)c1csc2ccccc12 [3-Thianaphthenoyltrifluoroacetone],inactive: 0.36
7,CN(C)c1nc(=NCc2ccco2)ss1,inactive: 0.88
8,O=c1ncccn1C1OC(CO)C(O)C1F (stereo not given),active: 5.79
9,COC(=O)c1ccccc1OCc1cc(=O)oc2ccc(C)cc12 [Methyl 2-[(6-methyl-2-oxochromen-4-yl)methoxy]benzoate],inactive: 1.03
10,COc1ccccc1[S+]([O-])Nc1ccccc1 (stereo not given) [2-methoxy-N-phenylbenzenesulfinamide],active: 1.49
11,"CCOC(=O)c1cc2c(OC)cc(OC)cc2oc1=O [ethyl 5,7-dimethoxy-2-oxochromene-3-carboxylate]",inactive: 0.85
12,CC1=CC(C)(C)N=C2SC(c3ccc(N)cc3)=NN12,inactive: 1.13
13,COc1cc(CC(=O)c2cc3c(cc2-c2ccccc2)OCO3)cc(OC)c1OC,inactive: 0.79
14,Nc1ncnc2c1ncn2[C@H]1C[C@H](O)[C@@H](CO)O1 [Deoxyadenosine],inactive: 1.12
15,Cc1ccc(CC2(OCCN(C)C)CCC(C(C)(C)C)CC2)cc1 (stereo not given),inactive: 0.723 and inactive: 0.958
16,NC(=O)c1csc([C@@H]2O[C@H](CO)[C@@H](O)[C@H]2O)n1 [2-.beta.-D-Ribofuranosyl-4-thiazolecarboxamide],inactive: 0.92
17,O=C1Cc2c([nH]c3ccc(Br)cc23)-c2ccccc2N1 [Kenpaullone],active: 1.86
18,C=C(C)C1CCC2(C(=O)O)CCC3(C)C(CCC4C5(C)CCC(O)C(C)(C)C5CCC43C)C12 (stereo not given),inactive: 0.997
19,"Cc1ccc(C2NC(=O)c3ccccc3N2)s1 (stereo not given) [2-(5-Methylthiophen-2-yl)-2,3-dihydroquinazolin-4(1H)-one]",inactive: 1.24
20,Cc1ccc(C)c(NC(=O)C(=O)C(C(=O)c2ccc3ccccc3c2)C2OC(=O)c3ccccc32)c1 (stereo not given),inactive: 0.96
21,Cc1cc(=O)[nH]c(NN2C(Cl)C(=O)C2c2cccc(Cl)c2)n1 (stereo not given),inactive: 1.11
22,COc1ccc2cccc(C(=N)c3ccc(C)c4c3CCC4)c2c1 [(7-Methoxy-1-naphthyl)-(7-methylindan-4-yl)methanimine],inactive: 1.13
23,C/C(=N\NC(=S)N1CCN(C2CCCCCC2)CC1)c1ccccn1,inactive: 1.03
24,"O=C1NC(c2cccc3ccccc23)Nc2ccccc21 (stereo not given) [2-(naphthalen-1-yl)-2,3-dihydroquinazolin-4(1h)-one]",inactive: 0.9
25,"COC(=O)NC1C(C)OC(OC2C/C=C(/C)C3C=CC4C(OC5CC(OC6CCC(OC7CC(O)C(OC8CCC(O)C(C)O8)C(C)O7)C(C)O6)C(OC(C)=O)C(C)O5)C(C)CC(C)C4C3(C)/C(O)=C3/C(=O)OC4(CC(C=O)=CC(O)C4/C=C\2C)C3=O)CC1(C)[N+](=O)[O-] (stereo not given) [Tetrocarcin A, sodium salt]",inactive: 0.86
26,O=C1CCCCCCCCCCCCCCCO1 [Hexadecanolactone],inactive: 1.06
27,COc1ccc2c(c1)-c1nn(CCCN(C)C)c3ccc([N+](=O)[O-])c(c13)N2 [Pyrazoloacridine],inactive: 0.42
28,CCN(CC)CCNc1ccc(CO)c2sc3ccccc3c(=O)c12 [Hycanthone mesylate],inactive: 0.9
29,"CCC1CN2CCc3cc(OC)c(OC)cc3C2CC1CC1c2cc(OC)c(OC)cc2CCN1C(=O)C1CCCN1C(=O)OCc1ccccc1 (stereo not given) [Emetine, benzyl ester]",inactive: 1.21
30,COCC(=O)OC1CCn2c1nc1c2C(=O)C(C)=C(NC(C)=O)C1=O (stereo not given),inactive: 0.92
